Results are given in words; binding and its absence hold for the method and conditions named. In cells and extracts the contact can be indirect.

By UniProt entry, the sequences of proteins in these tests, tags left out.
UniProt P04406: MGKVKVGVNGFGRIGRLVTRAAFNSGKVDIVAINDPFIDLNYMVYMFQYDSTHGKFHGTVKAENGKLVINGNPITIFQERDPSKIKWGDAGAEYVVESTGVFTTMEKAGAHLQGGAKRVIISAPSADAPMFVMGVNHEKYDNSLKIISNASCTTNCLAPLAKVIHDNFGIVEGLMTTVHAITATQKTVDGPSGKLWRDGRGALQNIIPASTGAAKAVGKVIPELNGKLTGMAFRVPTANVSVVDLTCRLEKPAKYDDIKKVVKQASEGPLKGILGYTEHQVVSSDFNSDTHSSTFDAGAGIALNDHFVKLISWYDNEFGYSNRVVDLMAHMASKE

The target in this assay is GAPDH from the membrane fraction of THP-1 phagocytes (human (endogenous in THP-1)) (UniProt P04406). In words: co-IP; THP-1 membrane fraction alone; GAPDH immunoprecipitated with monoclonal mouse anti-GAPDH on anti-mouse-IgG Magnabeads; blot probed with anti-human CD14.

B1: CD14 from the membrane fraction of THP-1 phagocytes (receptor, UniProt P08571 20-345)
chain: TTPEPCELDDEDFRCVCNFSEPQPDWSEAFQCVSAVEVEIHAGGLNLEPFLKRVDADADPRQYADTVKALRVRRLTVGAAQVPAQLLVGALRVLAYSRLKELTLEDLKITGTMPPLPLEATGLALSSLRLRNVSWATGRSWLAELQQWLKPGLKVLSIAQAHSPAFSCEQVRAFPALTSLDLSDNPGLGERGLMAALCPHKFPAIQNLALRNTGMETPTGVCAALAAAGVQPHSLDLSHNSLRATVNPSAPRCMWSSALNSLNLSFAGLEQVPKGLPAKLRVLDLSCNRLNRAPQPDELPEVDNLTLDGNPFLVPGTALPHEGSMN
On to B1, for which the binding result is “no binding”.

Source of the values: paper PMC8482365.
